Biological target: HER2 (Rattus norvegicus) (UniProt P06494)
Test: activity in cells
Conditions: preferential internalization into HER2+ vs HER2- cells by qRT-PCR, protein on the cell surface, dose not given here

By UniProt entry, the sequences of proteins in these tests, tags left out. Residues count along the entry.
UniProt P06494, 23-1257: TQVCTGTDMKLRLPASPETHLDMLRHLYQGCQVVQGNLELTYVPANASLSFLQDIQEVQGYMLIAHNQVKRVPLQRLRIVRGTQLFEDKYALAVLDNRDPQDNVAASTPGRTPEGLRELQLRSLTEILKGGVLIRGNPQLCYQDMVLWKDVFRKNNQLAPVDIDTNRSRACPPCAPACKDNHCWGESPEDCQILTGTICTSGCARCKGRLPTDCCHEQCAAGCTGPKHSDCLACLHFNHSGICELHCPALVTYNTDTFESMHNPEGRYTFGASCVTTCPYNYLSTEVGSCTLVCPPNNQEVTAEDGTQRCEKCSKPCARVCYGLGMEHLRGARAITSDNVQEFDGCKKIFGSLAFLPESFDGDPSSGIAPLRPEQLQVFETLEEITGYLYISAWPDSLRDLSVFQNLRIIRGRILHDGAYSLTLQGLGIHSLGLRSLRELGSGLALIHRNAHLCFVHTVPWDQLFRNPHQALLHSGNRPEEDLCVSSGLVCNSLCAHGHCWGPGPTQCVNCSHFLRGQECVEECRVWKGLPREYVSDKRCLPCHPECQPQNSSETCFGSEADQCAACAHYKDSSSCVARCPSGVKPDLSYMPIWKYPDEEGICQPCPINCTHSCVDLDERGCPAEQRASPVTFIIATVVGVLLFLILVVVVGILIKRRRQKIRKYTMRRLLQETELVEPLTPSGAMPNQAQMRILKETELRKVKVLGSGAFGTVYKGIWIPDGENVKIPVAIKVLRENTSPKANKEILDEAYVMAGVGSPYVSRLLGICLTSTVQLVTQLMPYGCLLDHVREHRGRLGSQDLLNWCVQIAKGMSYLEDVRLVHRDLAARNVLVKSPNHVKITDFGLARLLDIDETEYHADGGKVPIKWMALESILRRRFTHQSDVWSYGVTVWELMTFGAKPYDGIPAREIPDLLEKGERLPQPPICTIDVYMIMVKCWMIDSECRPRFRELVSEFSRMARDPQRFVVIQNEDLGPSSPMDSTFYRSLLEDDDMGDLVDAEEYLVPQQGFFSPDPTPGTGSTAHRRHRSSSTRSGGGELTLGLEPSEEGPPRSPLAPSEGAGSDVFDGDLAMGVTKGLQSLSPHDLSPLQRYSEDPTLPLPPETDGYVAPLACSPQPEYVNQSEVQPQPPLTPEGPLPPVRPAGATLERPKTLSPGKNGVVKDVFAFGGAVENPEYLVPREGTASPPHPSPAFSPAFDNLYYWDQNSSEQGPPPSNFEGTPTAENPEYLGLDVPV

| Sequence | functional effect of the aptamer | further results |
| --- | --- | --- |
| GGGAGGACGAUGCGGAUGUAUGUUGGGAGCCACGCCAGACGACUCGCCCGAGCUGUCACAGAGGGGCUACUU / GUAGCCCCUCUGUGACAGCUU [D1-Bcl-2 chimera] | – | functional effect of the aptamer (variant of D1): active |
| GGGAGGACGAUGCGGGACUGUAUGGGGCUCUGUGCAGACGACUCGCCCGAGCUGUCACAGAGGGGCUACUU / GUAGCCCCUCUGUGACAGCUU [A2-Bcl-2 chimera] | – | functional effect of the aptamer (variant of A2): active |
| GGGAGGACGAUGCGGUCUGUUGUGCUUGAUAUGCCCCAGACGACUCGCCCGAGCUGUCACAGAGGGGCUACUU / GUAGCCCCUCUGUGACAGCUU [B1-Bcl-2 chimera] | – | functional effect of the aptamer (variant of B1): active |
| GGGAGGACGAUGCGGCGAUGCUUACGUGCACGCGCCAGACGACUCGCCCGAGCUGUCACAGAGGGGCUACUU / GUAGCCCCUCUGUGACAGCUU [C3-Bcl-2 chimera] | active | – |
| GGGAGGACGAUGCGGCUGUAUGUUGGUAGCCACGCCAGACGACUCGCCCGAGCUGUCACAGAGGGGCUACUU / GUAGCCCCUCUGUGACAGCUU [D2-Bcl-2 chimera] | active | – |
| GGGAGGACGAUGCGGUCUGUGUGGGAUGUGGCCCCAGACGACUCGCCCGAGCUGUCACAGAGGGGCUACUU / GUAGCCCCUCUGUGACAGCUU [D3-Bcl-2 chimera] | active | – |
| GGGAGGACGAUGCGGUCUGCUGUGCUUGAUAUGCCCCAGACGACUCGCCCGAGCUGUCACAGAGGGGCUACUU / GUAGCCCCUCUGUGACAGCUU [B3-Bcl-2 chimera] | active | – |
| GGGAGGACGAUGCGGGACUGUACGGGCUCUGUGCAGACGACUCGCCCGAGCUGUCACAGAGGGGCUACUU / GUAGCCCCUCUGUGACAGCUU [A3-Bcl-2 chimera] | active | – |
| GGGAGGACGAUGCGGCUGUCUACCUUCUACUGCCGCAGACGACUCGCCCGAGCUGUCACAGAGGGGCUACUU / GUAGCCCCUCUGUGACAGCUU [C1-Bcl-2 chimera] | – | functional effect of the aptamer (variant of C1): active |

From US20130129719
